In patent US20020162794A1, “Anaerobic digestion” (priority 2001, published 2002):
Several values for one entry are separate records, joined by “and”; a condition that tells them apart may be missing. Equal entries are not always repeated.

Test system: mixed culture from a publicly owned anaerobic digester (domestic sewage sludge)
Assay: pH of laboratory batch anaerobic digester reactors

**Q.** With `O=C[O-].[Na+]` [sodium formate] as the compound, how does the pH (1/4/99 run, 100 ppm, 0 Day) read?
**A.** Its pH is 5.3.

**Q.** What about the pH (1/4/99 run, 100 ppm, 15 days) of the same compound?
**A.** The pH was 5.22.

**Q.** What about the pH (1/4/99 run, 100 ppm, 30 days) of the same compound?
**A.** The pH was 5.54.

**Q.** What about the pH (1/4/99 run, 1250 ppm, 0 Day) of the same compound?
**A.** The pH was 5.54.

**Q.** And the pH (1/4/99 run, 1250 ppm, 15 days)?
**A.** Its pH is 6.06.

**Q.** What about the pH (1/4/99 run, 1250 ppm, 30 days) of the same compound?
**A.** The pH was 7.1.

**Q.** And the pH (1/4/99 run, 2500 ppm, 0 Day)?
**A.** Its pH is 5.69.

**Q.** And the pH (1/4/99 run, 2500 ppm, 15 days)?
**A.** Its pH is 6.29.

**Q.** And the pH (1/4/99 run, 2500 ppm, 30 days)?
**A.** Its pH is 7.2.

**Q.** And the pH (1/4/99 run, 3750 ppm, 0 Day)?
**A.** The pH was 5.65.

**Q.** What about the pH (1/4/99 run, 3750 ppm, 15 days) of the same compound?
**A.** The pH was 6.8.

**Q.** What about the pH (1/4/99 run, 3750 ppm, 30 days) of the same compound?
**A.** The pH was 6.86.

**Q.** And the pH (1/4/99 run, 5000 ppm, 0 Day)?
**A.** The pH was 5.63.

**Q.** And the pH (1/4/99 run, 5000 ppm, 15 days)?
**A.** The pH was 7.01.

**Q.** And the pH (1/4/99 run, 5000 ppm, 30 days)?
**A.** The pH was 7.06.

**Q.** And the pH (1/4/99 run, 6250 ppm, 0 Day)?
**A.** The pH was 5.47.

**Q.** And the pH (1/4/99 run, 6250 ppm, 15 days)?
**A.** The pH was 7.42.

**Q.** What about the pH (1/4/99 run, 6250 ppm, 30 days) of the same compound?
**A.** The pH was 7.49.

**Q.** And the pH (1/4/99 run, 7500 ppm, 0 Day)?
**A.** Its pH is 5.54.

**Q.** And the pH (1/4/99 run, 7500 ppm, 15 days)?
**A.** Its pH is 7.7.

**Q.** What about the pH (1/4/99 run, 7500 ppm, 30 days) of the same compound?
**A.** The pH was 7.67.

**Q.** And the pH (1/4/99 run, 8750 ppm, 0 Day)?
**A.** The pH was 5.52.

**Q.** What about the pH (1/4/99 run, 8750 ppm, 15 days) of the same compound?
**A.** Its pH is 7.33.

**Q.** And the pH (1/4/99 run, 8750 ppm, 30 days)?
**A.** Its pH is 7.8.

**Q.** And the pH (1/4/99 run, 10000 ppm, 0 Day)?
**A.** Its pH is 5.44.

**Q.** And the pH (1/4/99 run, 10000 ppm, 15 days)?
**A.** Its pH is 5.82.

**Q.** And the pH (1/4/99 run, 10000 ppm, 30 days)?
**A.** The pH was 8.06.

**Q.** And the “pH, Average” value (1/4/99 run, average 25 ppm (reactors 0, 0, 0, 100 ppm), 0 Day)?
**A.** Its value is 5.22.

**Q.** What about the “pH, Average” value (1/4/99 run, average 25 ppm (reactors 0, 0, 0, 100 ppm), 15 days) of the same compound?
**A.** The value was 5.1325.

**Q.** And the “pH, Average” value (1/4/99 run, average 25 ppm (reactors 0, 0, 0, 100 ppm), 30 days)?
**A.** Its value is 5.345.

**Q.** And the “pH, Average” value (1/4/99 run, average 2500 ppm (1250, 2500, 3750 ppm), 0 Day)?
**A.** The value was 5.627.

**Q.** What about the “pH, Average” value (1/4/99 run, average 2500 ppm (1250, 2500, 3750 ppm), 15 days) of the same compound?
**A.** Its value is 6.383.

**Q.** And the “pH, Average” value (1/4/99 run, average 2500 ppm (1250, 2500, 3750 ppm), 30 days)?
**A.** Its value is 7.053.

**Q.** What about the “pH, Average” value (1/4/99 run, average 6250 ppm (5000, 6250, 7500 ppm), 0 Day) of the same compound?
**A.** Its value is 5.547.

**Q.** What about the “pH, Average” value (1/4/99 run, average 6250 ppm (5000, 6250, 7500 ppm), 15 days) of the same compound?
**A.** Its value is 7.377.

**Q.** And the “pH, Average” value (1/4/99 run, average 6250 ppm (5000, 6250, 7500 ppm), 30 days)?
**A.** The value was 7.407.

**Q.** And the “pH, Average” value (1/4/99 run, average 8750 ppm (7500, 8750, 10000 ppm), 0 Day)?
**A.** The value was 5.5.

**Q.** And the “pH, Average” value (1/4/99 run, average 8750 ppm (7500, 8750, 10000 ppm), 15 days)?
**A.** Its value is 6.95.

**Q.** What about the “pH, Average” value (1/4/99 run, average 8750 ppm (7500, 8750, 10000 ppm), 30 days) of the same compound?
**A.** The value was 7.843.

**Q.** And the pH (7/1/99 run (Tables 2, 10), 1000 ppm, 0 Day (with formate), listed as Format)?
**A.** Its pH is 5.21 and 5.22 and 5.3.

**Q.** What about the pH (7/1/99 run (Tables 2, 10), 1000 ppm, 0 Day (with formate), listed as Formate) of the same compound?
**A.** Its pH is 5.30 and 5.21 and 5.22.

**Q.** And the pH (7/1/99 run (Tables 2, 10), 1000 ppm, 5 Day, listed as Format)?
**A.** Its pH is 4.47 and 4.53 and 4.43.

**Q.** What about the pH (7/1/99 run (Tables 2, 10), 1000 ppm, 5 Day, listed as Formate) of the same compound?
**A.** Its pH is 4.43 and 4.47 and 4.53.

**Q.** And the pH (7/1/99 run (Tables 2, 10), 1000 ppm, 2 days, listed as Format)?
**A.** Its pH is 4.77 and 4.82 and 4.72.

**Q.** And the pH (7/1/99 run (Tables 2, 10), 1000 ppm, 2 days, listed as Formate)?
**A.** The pH was 4.72 and 4.77 and 4.82.

**Q.** And the pH (7/1/99 run (Tables 2, 10), 1000 ppm, 3 days, listed as Format)?
**A.** The pH was 4.57 and 4.66 and 4.52.

**Q.** And the pH (7/1/99 run (Tables 2, 10), 1000 ppm, 3 days, listed as Formate)?
**A.** Its pH is 4.52 and 4.57 and 4.66.

**Q.** And the pH (7/1/99 run (Tables 2, 10), 1000 ppm, 7 days, listed as Format)?
**A.** The pH was 4.26 and 4.27 and 4.2.

**Q.** What about the pH (7/1/99 run (Tables 2, 10), 1000 ppm, 7 days, listed as Formate) of the same compound?
**A.** The pH was 4.20 and 4.26 and 4.27.

**Q.** And the pH (7/1/99 run (Tables 2, 10), 1000 ppm, 9 days, listed as Format)?
**A.** The pH was 4.13 and 4.16 and 4.06.

**Q.** And the pH (7/1/99 run (Tables 2, 10), 1000 ppm, 9 days, listed as Formate)?
**A.** The pH was 4.06 and 4.13 and 4.16.

**Q.** What about the pH (7/1/99 run (Tables 2, 10), 1000 ppm, 17 days, listed as Format) of the same compound?
**A.** The pH was 3.88 and 3.71 and 3.83.

**Q.** And the pH (7/1/99 run (Tables 2, 10), 1000 ppm, 17 days, listed as Formate)?
**A.** Its pH is 3.83 and 3.88 and 3.71.

**Q.** And the pH (7/1/99 run (Tables 2, 10), 1000 ppm, 25 days, listed as Format)?
**A.** Its pH is 3.68 and 3.61 and 3.53.

**Q.** And the pH (7/1/99 run (Tables 2, 10), 1000 ppm, 25 days, listed as Formate)?
**A.** Its pH is 3.53 and 3.68 and 3.61.

**Q.** And the pH (7/1/99 run (Tables 2, 10), 1000 ppm, 55 days, listed as Format)?
**A.** Its pH is 3.76 and 3.61 and 3.59.

**Q.** And the pH (7/1/99 run (Tables 2, 10), 1000 ppm, 55 days, listed as Formate)?
**A.** The pH was 3.59 and 3.76 and 3.61.

**Q.** And the pH (7/1/99 run (Tables 2, 10), 5000 ppm, 0 Day (with formate))?
**A.** Its pH is 5.08.

**Q.** And the pH (7/1/99 run (Tables 2, 10), 5000 ppm, 5 Day)?
**A.** Its pH is 4.76.

**Q.** What about the pH (7/1/99 run (Tables 2, 10), 5000 ppm, 2 days) of the same compound?
**A.** The pH was 5.08.

**Q.** What about the pH (7/1/99 run (Tables 2, 10), 5000 ppm, 3 days) of the same compound?
**A.** Its pH is 4.85.

**Q.** What about the pH (7/1/99 run (Tables 2, 10), 5000 ppm, 7 days) of the same compound?
**A.** The pH was 4.5.

**Q.** What about the pH (7/1/99 run (Tables 2, 10), 5000 ppm, 9 days) of the same compound?
**A.** The pH was 4.37.

**Q.** What about the pH (7/1/99 run (Tables 2, 10), 5000 ppm, 17 days, listed as Format) of the same compound?
**A.** The pH was 4.

**Q.** What about the pH (7/1/99 run (Tables 2, 10), 5000 ppm, 17 days, listed as Formate) of the same compound?
**A.** The pH was 4.0.
